Assays:
[1] = Solution-processed OLEDs from soluble functional materials; conditions: solution-processed OLED
[2] = Vacuum-processed OLEDs with the complexes as phosphorescent emitter (efficiency, voltage, colour, lifetime); conditions: for LT80 (h) 1000 cd/m^2: orange-red, yellow and green OLEDs, time to 80% of initial luminous density 1000 cd/m^2; for Voltage (V) 1000 cd/m^2 / EQE (%) 1000 cd/m^2: vacuum-processed OLED, at 1000 cd/m^2; for EQE (%) 1000 cd/m^2: complex as emitter in EML (structure per Table 1)
[3] = device Type 1, initial luminous density 1000 cd/m^2
[4] = device Type 2, initial luminous density 1000 cd/m^2

## CC1(C)CCC(C)(C)c2c[c]3c(cc21)-c1cc2c(c[n+]1[Ir-3]314([c]3cc5c(cc3-c3cc6c(c[n+]31)C1CCC6C1)C(C)(C)CCC5(C)C)[c]1cc3c(cc1-c1cc5c(c[n+]14)C1CCC5C1)C(C)(C)CCC3(C)C)C1CCC2C1 (racemic) [Ir(LH5)3]
[1]; device Type 1, at 1000 cd/m^2
  EQE (%) 1000 cd/m^2: 22.7%
  Voltage (V) 1000 cd/m^2: 4.7 V
[1]; [3]
  LT50 (h) 1000 cd/m^2: 220000 h

## CC1(C)CCC(C)(C)c2cc(-c3ccnc(-c4cc5c(c[c]4[Ir]([c]4ccccc4-c4ccccn4)[c]4ccccc4-c4ccccn4)C(C)(C)CCC5(C)C)c3)ccc21 [Ir513]
[1]; device Type 1, at 1000 cd/m^2
  EQE (%) 1000 cd/m^2: 22.4%
  Voltage (V) 1000 cd/m^2: 4.2 V
[1]; [3]
  LT50 (h) 1000 cd/m^2: 250000 h

## CC1(C)CCC(C)(C)c2c[c]([Ir]([c]3ccccc3-c3ccccn3)[c]3ccccc3-c3ccccn3)c(-c3cc4c(cn3)C(C)(C)CC4(C)C)cc21 [Ir515]
[1]; device Type 1, at 1000 cd/m^2
  EQE (%) 1000 cd/m^2: 22.1%
  Voltage (V) 1000 cd/m^2: 4.6 V

## CC1(C)CCC(C)(C)c2cc3nc(-c4cccc[c]4[Ir]([c]4ccccc4-c4ccccn4)[c]4ccccc4-c4ccccn4)c(-c4ccccc4)nc3cc21 [Ir518]
[1]; device Type 1, at 1000 cd/m^2
  EQE (%) 1000 cd/m^2: 17.1%
  Voltage (V) 1000 cd/m^2: 3.7 V

## CC1(C)CCC(C)(C)c2cc3cc(-c4cc5c(c[c]4[Ir]([c]4ccccc4-c4ccccn4)[c]4ccccc4-c4ccccn4)C(C)(C)CC5(C)C)ncc3cc21 [Ir525]
[1]; device Type 2, at 1000 cd/m^2
  EQE (%) 1000 cd/m^2: 19.8%
  Voltage (V) 1000 cd/m^2: 3.8 V

## CC1(C)CCC(C)(C)c2cc(-c3cc4oc5ccccc5c4c[c]3[Ir]([c]3ccccc3-c3ccccn3)[c]3ccccc3-c3ccccn3)ncc21 [Ir528]
[1]; device Type 1, at 1000 cd/m^2
  EQE (%) 1000 cd/m^2: 21.5%
  Voltage (V) 1000 cd/m^2: 4.7 V

## Cc1cc(-c2cc3c(c[c]2[Ir]([c]2ccccc2-c2ccccn2)[c]2cc4c(cc2-c2cc(C)c(-c5ccccc5)cn2)C(C)(C)CCC4(C)C)C(C)(C)CCC3(C)C)ncc1-c1ccccc1 [Ir540]
[1]; device Type 1, at 1000 cd/m^2
  EQE (%) 1000 cd/m^2: 22.2%
  Voltage (V) 1000 cd/m^2: 4.6 V

## Cc1cc(-c2cc3c(c[c]2[Ir]([c]2ccccc2-c2ccccn2)[c]2cc4c(cc2-c2cc(C)c(-c5ccc6c(c5)C(C)(C)CCC6(C)C)cn2)C(C)(C)CCC4(C)C)C(C)(C)CCC3(C)C)ncc1-c1ccc2c(c1)C(C)(C)CCC2(C)C [Ir542]
[1]; device Type 1, at 1000 cd/m^2
  EQE (%) 1000 cd/m^2: 22.5%
  Voltage (V) 1000 cd/m^2: 4.6 V

## Cn1c(-c2cccc[c]2[Ir]([c]2ccc(C#N)cc2-c2ccccn2)[c]2ccccc2-c2nc3cc4c(cc3n2C)C(C)(C)CCC4(C)C)nc2cc3c(cc21)C(C)(C)CCC3(C)C [Ir546]
[1]; device Type 1, at 1000 cd/m^2
  EQE (%) 1000 cd/m^2: 20.5%
  Voltage (V) 1000 cd/m^2: 4.5 V

## CC1(C)CCC(C)(C)c2cc3c(-c4ccc(-c5ccccc5)c[c]4[Ir]([c]4ccccc4-c4cc5ccccc5cn4)[c]4cc(-c5ccccc5)ccc4-c4nccc5cc6c(cc45)C(C)(C)CCC6(C)C)nccc3cc21 [Ir549]
[1]; device Type 2, at 1000 cd/m^2
  EQE (%) 1000 cd/m^2: 19.5%
  Voltage (V) 1000 cd/m^2: 3.8 V

## CC(C)(C)c1c[c]([Ir]([c]2cc(C(C)(C)C)ncc2-c2nccc3cc4c(cc23)C(C)(C)CCC4(C)C)[c]2cccc3ccc4cccnc4c23)c(-c2nccc3cc4c(cc23)C(C)(C)CCC4(C)C)cn1 [Ir550]
[1]; device Type 2, at 1000 cd/m^2
  EQE (%) 1000 cd/m^2: 19.0%
  Voltage (V) 1000 cd/m^2: 3.9 V
[1]; [4]
  LT50 (h) 1000 cd/m^2: 170000 h

## CC1(C)CCC(C)(C)c2c[c]([Ir]([c]3cc4c(cc3-c3cc(-c5ccccc5)ccn3)C(C)(C)C(C)(C)C4(C)C)[c]3cc4c(cc3-c3nccc5cc6c(cc35)C(C)(C)CCC6(C)C)C(C)(C)CCC4(C)C)c(-c3nccc4cc5c(cc34)C(C)(C)CCC5(C)C)cc21 [Ir551]
[1]; device Type 2, at 1000 cd/m^2
  EQE (%) 1000 cd/m^2: 20.0%
  Voltage (V) 1000 cd/m^2: 3.8 V
[1]; [4]
  LT50 (h) 1000 cd/m^2: 200000 h

## CC1(C)CCC(C)(C)c2cc3cc(-c4cccc[c]4[Ir]([c]4cc5c(cc4-c4cc6cc7c(cc6cn4)C(C)(C)CCC7(C)C)C(C)(C)CC5(C)C)[c]4cc5c(cc4-c4cc6cc7c(cc6cn4)C(C)(C)CCC7(C)C)C(C)(C)CC5(C)C)ncc3cc21 [Ir555]
[1]; device Type 2, at 1000 cd/m^2
  EQE (%) 1000 cd/m^2: 20.5%
  Voltage (V) 1000 cd/m^2: 3.8 V

## CC(C)(C)c1cc2[n+](cn1)[Ir-3]13([c]4cc5c(cc4-2)C(C)(C)CCC5(C)C)([c]2cc4c(cc2-c2cc(C(C)(C)C)nc[n+]21)C(C)(C)CCC4(C)C)[c]1cc2c(cc1-c1cc(C(C)(C)C)nc[n+]13)C(C)(C)CCC2(C)C [Ir(LH11)3]
[1]; device Type 1, at 1000 cd/m^2
  EQE (%) 1000 cd/m^2: 22.1%
  Voltage (V) 1000 cd/m^2: 4.3 V

## Cc1cc2[n+](cc1-c1ccc3c(c1)C(C)(C)CCC3(C)C)[Ir-3]13([c]4cc5c(cc4-2)C(C)(C)CCC5(C)C)([c]2cc4c(cc2-c2cc(C)c(-c5ccc6c(c5)C(C)(C)CCC6(C)C)c[n+]21)C(C)(C)CCC4(C)C)[c]1cc2c(cc1-c1cc(C)c(-c4ccc5c(c4)C(C)(C)CCC5(C)C)c[n+]13)C(C)(C)CCC2(C)C [Ir(LH15)3]
[1]; device Type 1, at 1000 cd/m^2
  EQE (%) 1000 cd/m^2: 22.1%
  Voltage (V) 1000 cd/m^2: 4.6 V
[1]; [3]
  LT50 (h) 1000 cd/m^2: 200000 h

## Cc1cccc(C)c1-n1c2[n+](c3cc4c(cc31)C(C)(C)CCC4(C)C)[Ir-3]13([c]4ccccc4-2)([c]2ccccc2-c2n(-c4c(C)cccc4C)c4cc5c(cc4[n+]21)C(C)(C)CCC5(C)C)[c]1ccccc1-c1n(-c2c(C)cccc2C)c2cc4c(cc2[n+]13)C(C)(C)CCC4(C)C [Ir(LH20)3]
[1]; device Type 1, at 1000 cd/m^2
  EQE (%) 1000 cd/m^2: 19.3%
  Voltage (V) 1000 cd/m^2: 4.6 V

## CC(C)n1c2[n+](c3cc4c(cc31)C(C)(C)CCC4(C)C)[Ir-3]13([c]4ccccc4-2)([c]2ccccc2-c2n(C(C)C)c4cc5c(cc4[n+]21)C(C)(C)CCC5(C)C)[c]1ccccc1-c1n(C(C)C)c2cc4c(cc2[n+]13)C(C)(C)CCC4(C)C [Ir(LH21)3]
[1]; device Type 1, at 1000 cd/m^2
  EQE (%) 1000 cd/m^2: 19.1%
  Voltage (V) 1000 cd/m^2: 4.7 V

## CC1(C)CCC(C)(C)c2cc3c4[n+](ccc3cc21)[Ir-3]12([c]3cc(-c5ccccc5)ccc3-4)([c]3cc(-c4ccccc4)ccc3-c3c4cc5c(cc4cc[n+]31)C(C)(C)CCC5(C)C)[c]1cc(-c3ccccc3)ccc1-c1c3cc4c(cc3cc[n+]12)C(C)(C)CCC4(C)C [Ir(LH28)3]
[1]; device Type 1, at 1000 cd/m^2
  EQE (%) 1000 cd/m^2: 18.8%
  Voltage (V) 1000 cd/m^2: 3.9 V
[1]; [3]
  LT50 (h) 1000 cd/m^2: 150000 h

## CC(C)(C)c1c[c]2c(cn1)-c1c3cc4c(cc3cc[n+]1[Ir-3]213([c]2cc(C(C)(C)C)ncc2-c2c5cc6c(cc5cc[n+]21)C(C)(C)CCC6(C)C)[c]1cc(C(C)(C)C)ncc1-c1c2cc5c(cc2cc[n+]13)C(C)(C)CCC5(C)C)C(C)(C)CCC4(C)C [Ir(LH29)3]
[1]; device Type 1, at 1000 cd/m^2
  EQE (%) 1000 cd/m^2: 19.5%
  Voltage (V) 1000 cd/m^2: 3.7 V

## CC1(C)CCC(C)(C)c2c[c]3c(cc21)-c1c2cc4c(cc2cc[n+]1[Ir-3]312([c]3cc5c(cc3-c3c6cc7c(cc6cc[n+]31)C(C)(C)CCC7(C)C)C(C)(C)CCC5(C)C)[c]1cc3c(cc1-c1c5cc6c(cc5cc[n+]12)C(C)(C)CCC6(C)C)C(C)(C)CCC3(C)C)C(C)(C)CCC4(C)C [Ir(LH30)3]
[1]; device Type 2, at 1000 cd/m^2
  EQE (%) 1000 cd/m^2: 19.1%
  Voltage (V) 1000 cd/m^2: 3.7 V
[1]; [4]
  LT50 (h) 1000 cd/m^2: 180000 h

## CC1(C)CCC(C)(C)c2cc3c[n+]4c(cc3cc21)-c1cccc[c]1[Ir-3]412([c]3ccccc3-c3cc4cc5c(cc4c[n+]31)C(C)(C)CCC5(C)C)[c]1ccccc1-c1cc3cc4c(cc3c[n+]12)C(C)(C)CCC4(C)C [Ir(LH33)3]
[2]
  LT80 (h) 1000 cd/m^2: 14000 h
  Voltage (V) 1000 cd/m^2: 3.1 V
  EQE (%) 1000 cd/m^2: 19.2%

## CC1(C)CCC(C)(C)c2cc(-c3cccc[c]3[Ir]([c]3ccccc3-c3cc4c(cn3)C(C)(C)CCC4(C)C)[c]3ccccc3-c3cc4c(cn3)C(C)(C)CCC4(C)C)ncc21 [Ir(LH35)3]
[2]
  LT80 (h) 1000 cd/m^2: 22000 h
  Voltage (V) 1000 cd/m^2: 3.2 V
  EQE (%) 1000 cd/m^2: 22.8%

## [2H]c1c([2H])c([2H])[c]([Ir]([c]2c([2H])c([2H])c([2H])c([2H])c2-c2cc3c(cn2)C(C)(C)CCC3(C)C)[c]2c([2H])c([2H])c([2H])c([2H])c2-c2cc3c(cn2)C(C)(C)CCC3(C)C)c(-c2cc3c(cn2)C(C)(C)CCC3(C)C)c1[2H] [Ir(LH36)3]
[2]
  LT80 (h) 1000 cd/m^2: 25000 h
  Voltage (V) 1000 cd/m^2: 3.2 V
  EQE (%) 1000 cd/m^2: 23.4%

## CC1(C)CCC(C)(C)c2cc(-c3cc4c(c[c]3[Ir]([c]3cc5c(cc3-c3cc6c(cn3)C(C)(C)CCC6(C)C)C(C)(C)C(C)(C)C5(C)C)[c]3cc5c(cc3-c3cc6c(cn3)C(C)(C)CCC6(C)C)C(C)(C)C(C)(C)C5(C)C)C(C)(C)C(C)(C)C4(C)C)ncc21 [Ir(LH42)3]
[2]
  LT80 (h) 1000 cd/m^2: 24000 h
  Voltage (V) 1000 cd/m^2: 3.3 V
  EQE (%) 1000 cd/m^2: 24.3%

## Cc1cnc(-c2[c-]cc3c(c2)C(C)(C)CCC3(C)C)cc1C.Cc1cnc(-c2[c-]cc3c(c2)C(C)(C)CCC3(C)C)cc1C.Cc1cnc(-c2[c-]cc3c(c2)C(C)(C)CCC3(C)C)cc1C.[Ir+3] [Ir(LH58)3]
[2]
  LT80 (h) 1000 cd/m^2: 23000 h
  Voltage (V) 1000 cd/m^2: 3.2 V
  EQE (%) 1000 cd/m^2: 23.0%

## CC1(C)CCC(C)(C)c2cc(-c3nccc4ccccc34)[c-]cc21.CC1(C)CCC(C)(C)c2cc(-c3nccc4ccccc34)[c-]cc21.CC1(C)CCC(C)(C)c2cc(-c3nccc4ccccc34)[c-]cc21.[Ir+3] [Ir(LH61)3]
[2]
  LT80 (h) 1000 cd/m^2: 21000 h
  Voltage (V) 1000 cd/m^2: 3.0 V
  EQE (%) 1000 cd/m^2: 18.0%

Reference: patent publication US11393988B2, “Metal complexes” (Merck Patent GmbH, priority 2014, dated 2022)
